For the assay, the target named is HHV-6B (strain Z29) glycoprotein gB (HHV-6B strain Z29). Put plainly: affinity purification with mass spectrometry; semi-purified HHV-6 viral particles (10^6 TCID50/ml) incubated with 1 mg HeLa protein lysate (PBS, no detergent) for 12 h at 4°C; IP with anti-HHV-6 gB antibody and agarose beads; washes with 20 mM Hepes, 200 mM NaCl, 1 mM EDTA, 10 mg/ml BSA; SDS-PAGE, silver staining, enriched bands identified by mass spectrometry.

These are yes or no findings as the source states them, for the method shown. Binding seen in cells or lysates may run through a third protein. These calls come from enrichment with a bait or labelling near it, and not all partners need be listed.

B1: Transketolase (protein, UniProt P29401 1-623)
chain: MESYHKPDQQKLQALKDTANRLRISSIQATTAAGSGHPTSCCSAAEIMAVLFFHTMRYKSQDPRNPHNDRFVLSKGHAAPILYAVWAEAGFLAEAELLNLRKISSDLDGHPVPKQAFTDVATGSLGQGLGAACGMAYTGKYFDKASYRVYCLLGDGELSEGSVWEAMAFASIYKLDNLVAILDINRLGQSDPAPLQHQMDIYQKRCEAFGWHAIIVDGHSVEELCKAFGQAKHQPTAIIAKTFKGRGITGVEDKESWHGKPLPKNMAEQIIQEIYSQIQSKKKILATPPQEDAPSVDIANIRMPSLPSYKVGDKIATRKAYGQALAKLGHASDRIIALDGDTKNSTFSEIFKKEHPDRFIECYIAEQNMVSIAVGCATRNRTVPFCSTFAAFFTRAFDQIRMAAISESNINLCGSHCGVSIGEDGPSQMALEDLAMFRSVPTSTVFYPSDGVATEKAVELAANTKGICFIRTSRPENAIIYNNNEDFQVGQAKVVLKSKDDQVTVIGAGVTLHEALAAAELLKKEKINIRVLDPFTIKPLDRKLILDSARATKGRILTVEDHYYEGGIGEAVSSAVVGEPGITVTHLAVNRVPRSGKPAELLKMFGIDRDAIAQAVRGLITKA
On to B1, for which the binding result is reported as “binds”.

For the origin of these results see publication PMC4254946.
